According to the supplement of paper PMC7858590:
Values joined by “and” are separate entries in the source; they are usually repeats but may differ in a detail not shown here. Equal entries are not always repeated. ± gives the standard deviation of the averaged measurements. In all, about 3,800 compounds were measured (“cell shape (eccentricity) Z-score vs DMSO control”: median about 1.1, lowest 2% from about -4.7 on). The list shows a part of the results. Residues, ends and D or L forms follow the SMILES beside them.

system: human monocyte-derived macrophages (M0); experiment: cell shape (eccentricity) Z-score vs DMSO control; higher = more elongated, M2-like morphology; conditions: 20 µM; 24 h; macrophage state: M0 (M-CSF)

| SMILES | cell shape (Z-score) |
| --- | --- |
| COc1c(OC2OC(CO)C(O)C(O)C2O)ccc(O)c1C(=O)OCc1ccccc1O[C@@H]1O[C@H](CO)[C@@H](O)[C@H](O)[C@H]1O (stereo partly specified) | 1.05 ± 1.1 |
| C=C1CC[C@@H]2[C@](C)(CO)[C@H](O)CC[C@@]2(C)[C@@H]1CC(O)C1=CCOC1=O (stereo partly specified) | -2.2 ± 3.4 |
| Cc1noc(NS(=O)(=O)c2ccc(N)cc2)c1C | 2.76 |
| COC(=O)c1c(C)c2c(c(C)c1O)OC(=O)c1c(C)c(Cl)c(O)c(Cl)c1O2 | 1.07 |
| COC(=O)C(Cc1ccccc1)NC(=O)c1ccccc1 (stereo unspecified) | 1.39 |
| COc1cc(/C=C/C(=O)O)cc(OC)c1O | 1.22 |
| COc1ccc2c(=O)c(CC(=O)O)coc2c1 | 4.13 |
| C/C=C1\C(O[C@@H]2O[C@H](CO)[C@@H](O)[C@H](O)[C@H]2O)OC=C(C(=O)OC)C1CC(=O)OC[C@H]1O[C@@H](OCCc2ccc(O)cc2)[C@H](OC(=O)CC2C(C(=O)OC)=COC(O[C@@H]3O[C@H](CO)[C@@H](O)[C@H](O)[C@H]3O)/C2=C\C)[C@@H](O)[C@@H]1O (stereo partly specified) | 0.709 |
| CC1(C)Oc2ccc(C#N)cc2C(N2CCCC2=O)C1O (stereo unspecified) | 3.24 |
| O=c1cc(-c2ccc(O)cc2)oc2cc(OC3OC(CO)C(O)C(O)C3OC3OCC(O)(CO)C3O)cc(O)c12 (stereo unspecified) | 4.18 |
| COc1ccc([C@@H]2CNC(=O)C2)cc1OC1CCCC1 | 4.04 |
| COc1ccc(C(=O)c2ccc(O)cc2)c(O)c1O | 2.93 |
| CCC(=O)NC1Cc2ccccc2C(c2ccccc2)C1 (stereo unspecified) | 3.31 |
| N#C/C(=C\c1ccc(O)c(O)c1)C(N)=O | 1.86 |
| C/C(=C\CC(C)(C)CCC(=O)c1ccoc1)C(=O)O | 0.165 |
| COc1cc(O)c2c(c1)O[C@H](c1ccc(O)c(O)c1)[C@@H](O)C2=O | 0.924 |
| O=c1cc(-c2ccccc2F)[nH]c2cc3c(cc12)OCO3 | 5.49 |
| C=CCSCC1Nc2cc(Cl)c(S(N)(=O)=O)cc2S(=O)(=O)N1 (stereo unspecified) | 2.47 |
| O=C(O)c1cc2cc(OCc3ccccc3)ccc2[nH]1 | 1.63 |

| SMILES | cell shape (Z-score) |
| --- | --- |
| C[C@@H]1CC2C3CCC4=CC(=O)C=C[C@]4(C)[C@@]3(F)[C@@H](O)C[C@]2(C)[C@H]1C(=O)CO (stereo partly specified) | 2.43 |
| C=CC(C)(C)c1[nH]c2ccccc2c1C1C(=O)C(=O)C(c2c[nH]c3c(CC=C(C)C)cccc23)C(=O)C1=O (stereo unspecified) | 2.71 |
| CCCCC[C@@H](O)[C@H]1C(=O)O[C@H](C)[C@@H](O)/C=C/C=C/C=C/C=C/C=C(\C)[C@@H](O)C[C@H](O)C[C@H](O)C[C@H](O)C[C@H](O)C[C@H](O)C[C@@H]1O | -1.02 |
| Cn1cc(-c2ccc3nnc(Sc4ccc5ncccc5c4)n3n2)cn1 | 2.75 |
| C[C@H]1[C@H](C)CC[C@]2(C(=O)O)CC[C@]3(C)C4=CCC5C(C)(C)[C@@H](O[C@@H]6O[C@H](C(=O)O)[C@@H](O)[C@H](O)[C@H]6O)CC[C@]5(C)C4CC[C@@]3(C)[C@H]12 (stereo partly specified) | 0.578 |
| CC(C)N1CCN(c2ccc(C(=O)c3c(-c4ccc(O)cc4)sc4cc(O)ccc34)cc2)CC1 | 1.37 |
| C/C(=C/CCC(CO)C1CCC2(C)C3CCC4C(C)(C)C(OC5OC(CO)C(O)C(O)C5O)CC(O)C45CC35CCC12C)COC1OC(CO)C(O)C(O)C1O (stereo unspecified) | 1.23 |
| CC(=O)Nc1ccc(O)cc1 | -2.38 |
| COc1cc(Nc2cc(C#N)nc3cc(OCCCN4CCN(C)CC4)c(OC)cc23)c(Cl)cc1Cl | 37.1 |
| C=C[C@@]1(C)CCC2=C(C1)C(=O)CC1[C@](C)(C(=O)O)CCC[C@]21C (stereo partly specified) | -0.98 |
| c1ccc2c(Oc3nc(Nc4ccc(N5CCOCC5)cc4)c4ncn(C5CCCCC5)c4n3)cccc2c1 | 4.3 and 9.74 |
| COc1c2c(c(O)c3c(=O)c4c(OC)c(O)ccc4oc13)C1CCCC(C)(O2)O1 (stereo unspecified) | 0.966 |
| CN1CCN(C(c2ccccc2)c2ccccc2)CC1 | 1.87 |
| CC(C)C(=O)c1c(C(C)C)nn2ccccc12 | 1.96 |
| Nc1ccc(-c2cccs2)cc1NC(=O)c1ccc(C(=O)NCCc2ccncc2)cc1 | 1.41 |
| COC(=O)[C@H](Cc1ccccc1)NC(=O)[C@@H](N)CC(=O)O (H-Asp-Phe-OMe) | 0.788 |
| COc1ccc(/C=C2\Oc3cc(O)cc(O)c3C2=O)cc1O | -0.178 |
| CN1C2CC[C@H]1C[C@@H](OC(=O)C(O)c1ccccc1)C2 (stereo partly specified) | -0.751 |
| CS(=O)(=O)Oc1ccc2c(NC(N)=O)c(C(=O)c3ccc(Cl)cc3Cl)oc2c1 | 3.52 |

Laid out differently: results already given
COc1cc(Nc2cc(C#N)nc3cc(OCCCN4CCN(C)CC4)c(OC)cc23)c(Cl)cc1Cl
  cell shape (Z-score): 37.1
C=C[C@@]1(C)CCC2=C(C1)C(=O)CC1[C@](C)(C(=O)O)CCC[C@]21C (stereo partly specified)
  cell shape (Z-score): -0.98
CC(C)C(=O)c1c(C(C)C)nn2ccccc12
  cell shape (Z-score): 1.96

(list continues)

| SMILES | cell shape (Z-score) |
| --- | --- |
| CC1(C)C2CC[C@]3(C)C(C(=O)C=C4[C@H]5C[C@@](C)(C(=O)O)CC[C@]5(C)CC[C@]43C)[C@@]2(C)CC[C@@H]1O (stereo partly specified) | 0.344 |
| COc1ccccc1N1CCN(CC(O)COc2cccc3ccccc23)CC1 (stereo unspecified) | 2.28 |
| CC(O)(CC(=O)O)CC(=O)OCC1OC(Oc2c(-c3ccc(O)cc3)oc3cc(O)cc(O)c3c2=O)C(O)C(O)C1O (stereo unspecified) | -0.287 ± 1.1 |
| CN(C)CCCNc1c2c(=O)n(C)c(=O)nc-2n(C)c2ccccc12 | -2.4 |
| C[C@]12CCC(=O)C=C1CCC1C2C(=O)C[C@@]2(C)C1CC[C@]2(O)C(=O)CO (stereo partly specified) | -0.324 |
| CCC[C@H](NC(=O)/C(C#N)=C/c1cccc(Br)n1)c1ccccc1 | -4.73 |
| COc1cc(OC)c(C(=O)CCCN2CCCC2)c(OC)c1 | -0.326 |
| CC1Nc2ccc(Cl)cc2S(=O)(=O)N1 (stereo unspecified) | -3.56 |
| CCC(=O)c1ccc(O)cc1 | -0.827 |
| COc1cc2c3cc1Oc1cc(ccc1O)C[C@@H]1c4c(cc(OC)c(O)c4Oc4ccc(cc4)C[C@@H]3N(C)CC2)CC[N+]1(C)C | 2.6 |
| Oc1ccc(Cl)c2cccnc12 | 2.18 |
| COc1cc(C(=O)N2CCC(N3CCN(C)CC3)CC2)ccc1Nc1ncc2c(n1)N(C)c1ccccc1C(=O)N2C | 8.88 |
| Cc1ccsc1C(=CCCN1CCC[C@@H](C(=O)O)C1)c1sccc1C | 0.0539 |
| CCCCC(=O)O[C@]1(C(=O)CO)CCC2C3CCC4=CC(=O)CC[C@]4(C)C3[C@@H](O)C[C@@]21C (stereo partly specified) | -1.46 |
| O=c1[nH]cc(F)c(=O)[nH]1 | 0.695 and 1.21 |
| CC1(C)CCC(C)(C)c2cc(C(=O)Nc3ccc(C(=O)O)cc3)ccc21 | 9.3 |
| CN(C)CC[C@H](CSc1ccccc1)Nc1ccc(S(=O)(=O)NC(=O)c2ccc(N3CCN(Cc4ccccc4-c4ccc(Cl)cc4)CC3)cc2)cc1[N+](=O)[O-] | 7 |
| CN(C)CCCN1c2ccccc2Sc2ccccc21 | -2.99 |
